Measurements taken from US12281301B2, “Sequencing-based proteomics” (THE BROAD INSTITUTE, INC., priority 2018, dated 2025).
At least one structure is not confirmed: it was looked up by name or label, or the drawing left a doubt.

System: SKMEL28 melanoma cells
Assay: PATTERNS protein quantification in tagged SKMEL28 melanoma cell library
Format: cell-based, human
Conditions: 6 hours of treatment; 500 proteins quantified

SMILES: CCCS(=O)(=O)Nc1ccc(F)c(C(=O)c2c[nH]c3ncc(-c4ccc(Cl)cc4)cc23)c1F [Vemurafenib]
- proteins downregulated, by PATTERNS: one protein downregulated
